These results are taken from PMC12670160, “A drug-repurposing screen of FDA- and EMA-approved drugs identifies two NF-κB inhibitors active against eumycetoma” (Journal of Antimicrobial Chemotherapy, 2025).

Structures can show the parent of a compound that is named as a salt. The campaign covered roughly 5,300 compounds. About 130 (2.5%) showed an effect of 50% or more. This is one part of the list. Bridge positions count the residues as written; N and C are the ends. Square brackets hold non-standard residues; d marks the D form. Peptide text beside a SMILES is read from it. * marks the point of attachment. dPhe(4-NHCONH2) = NC(=O)Nc1ccc(C[C@@H](N)C(=O)O)cc1; Dihydroorotyl(S) = O=C1C[C@@H](C(=O)*)NC(=O)N1; dPhe(4-Cl) = N[C@H](Cc1ccc(Cl)cc1)C(=O)O; Phe(4-NH2) = Nc1ccc(C[C@H](N)C(=O)O)cc1; d2Nal = N[C@H](Cc1ccc2ccccc2c1)C(=O)O; Lys(iPr) = CC(C)NCCCC[C@H](N)C(=O)O; d3Pal = N[C@H](Cc1cccnc1)C(=O)O

The experiment deals with M. mycetomatis strain mm55. Conditions: primary screen, metabolic activity vs growth control; 96 h, 2 µM; inhibitor.
In the case of `COc1nccc(-c2c(-c3ccc(F)cc3)ncn2[C@H]2CC[C@H](O)CC2)n1` [ONC0001733, sb239063], the “% viability” value came out at 80.99%.
Turning to `O=C(CCCl)NCc1ccccc1` [ONC0003981, beclamide], the “% viability” value is on record as 60.69%.
Turning to `CN[C@H](CC(C)C)C(=O)N[C@H]1C(=O)N[C@@H](CC(N)=O)C(=O)N[C@H]2C(=O)N[C@H]3C(=O)N[C@H](C(=O)N[C@H](C(=O)O)c4cc(O)cc(O)c4-c4cc3ccc4O)[C@H](O)c3ccc(c(Cl)c3)Oc3cc2cc(c3O[C@@H]2O[C@H](CO)[C@@H](O)[C@H](O)[C@H]2O[C@H]2C[C@](C)(N)[C@H](O)[C@H](C)O2)Oc2ccc(cc2Cl)[C@H]1O` [ONC0003670, vancomycin hydrochloride], the “% viability” value is listed as 56.74%.
With `CNC(=O)[C@@H](Cc1ccccc1)N(C)C(=O)[C@@H](Cc1ccc2ccccc2c1)N(C)C(=O)/C=C/CC(C)(C)N` [ONC0003613, tabimorelin fumarate] the figure was 61.16%; with `COc1ccccc1CC(=N)N1C[C@@H]2C(=O)CCC(c3ccccc3)(c3ccccc3)[C@@H]2C1` [ONC0001413, rp67580], 48.12%.
For `CCCCCCCCCCCCCCOS(=O)(=O)O` [ONC0003317, sodium tetradecyl sulfate] the value was 84.61%; for `NS(=O)(=O)c1cc2c(cc1Cl)N=CNS2(=O)=O` [ONC0000783, chlorothiazide], 66.41%.
Regarding `CCCn1c(=O)[nH]c2nc(-c3ccc(S(=O)(=O)N4CCN(c5ccc(Cl)cc5)CC4)cc3)[nH]c2c1=O` [ONC0004463, psb603], the “% viability” value is given as 98.11%.
Consider `COc1cc2c(cc1OC(C)C)[C@H](c1ccc(Cl)cc1)N(c1ccc(N(C)C[C@H]3CC[C@H](N4CCN(C)C(=O)C4)CC3)cc1)C(=O)C2` [ONC0002106, nvpcgm097], for which the “% viability” value worked out at 64.38%.
For `NCC(=O)Nc1ccc(-n2nc(C(F)(F)F)cc2-c2ccc3c(ccc4ccccc43)c2)cc1` [ONC0002577, ar12] the value was 66.96%; for `CNC(=O)c1ccc2cc([C@]3(O)CCn4cncc43)ccc2c1` [ONC0004670, tak700 orteronel], 115.9%; for `CNC(=O)c1ccccc1Nc1nc(Nc2ccc3c(c2OC)CCC[C@H](N2CCN(CCO)CC2)C3)ncc1Cl` [ONC0005621, cep37440], 62.01%.
For `CN[C@H]1CN(c2ccc3c(=O)c(C(=O)O)cn(-c4nccs4)c3n2)C[C@@H]1OC` [ONC0001301, voreloxin hydrochloride] the value was 85.22%.
With `COc1cc(C(=O)NS(=O)(=O)c2ccccc2C)ccc1Cc1cn(C)c2ccc(NC(=O)OC3CCCC3)cc12` [ONC0005016, zafirlukast accolate] the figure was 51.79%.
Consider `CC(=O)N[C@H](Cc1ccc2ccccc2c1)C(=O)N[C@H](Cc1ccc(Cl)cc1)C(=O)N[C@H](Cc1cccnc1)C(=O)N[C@@H](CO)C(=O)N[C@@H](Cc1ccc(NC(=O)[C@@H]2CC(=O)NC(=O)N2)cc1)C(=O)N[C@H](Cc1ccc(NC(N)=O)cc1)C(=O)N[C@@H](CC(C)C)C(=O)N[C@@H](CCCCNC(C)C)C(=O)N1CCC[C@H]1C(=O)N[C@H](C)C(N)=O` [ONC0002214, degarelix] (Ac-[d2Nal][dPhe(4-Cl)][d3Pal]S[Phe(4-NH2)](Dihydroorotyl(S))[dPhe(4-NHCONH2)]L[Lys(iPr)]P[dA]-NH2), for which the “% viability” value is 83.96%.
With `Cl[C@H]1[C@H](Cl)[C@@H](Cl)[C@@H](Cl)[C@H](Cl)[C@H]1Cl` [ONC0003293, lindane], the “% viability” value turned out to be 102.8%.
With `Cc1cc(C2CCCCC2)n(O)c(=O)c1` [ONC0000294, ciclopirox olamine] the figure was 81.14%; with `CCS(=O)(=O)N(C)[C@H]1c2cc(C#N)ccc2OC(C)(C)[C@@H]1O` [ONC0002693, chromanol293b3r4s], 103.9%.
For `CC1=C(C(=O)OC(C)C)C(c2cccc([N+](=O)[O-])c2)C(C(=O)OC2CN(C(c3ccccc3)c3ccccc3)C2)=C(N)N1` (centres unmarked) [ONC0004340, azelnidipine] the value was 111.6%; for `COc1cc([S+](C)[O-])ccc1-c1nc2ncccc2[nH]1` (centres unmarked) [ONC0002956, sulmazole], 88.35%.
For `CCCCCCCCCCCCC/C=C/[C@@H](O)[C@H](CO)NC(C)=O` [ONC0004279, ceramide] the value was 73.48%; for `CC[C@]1(O)C[C@H]2CN(CCc3c([nH]c4ccccc34)[C@@](C(=O)OC)(c3cc4c(cc3OC)N(C)[C@H]3[C@@](O)(C(N)=O)[C@H](O)[C@]5(CC)C=CCN6CC[C@]43[C@@H]65)C2)C1` [ONC0000288, vindesine sulfate], 94.86%; for `CCOc1cc([C@@H](CS(C)(=O)=O)N2C(=O)c3cccc(NC(C)=O)c3C2=O)ccc1OC` [ONC0004381, apremilast cc10004 apremilast cc10004], 94.27%.
Regarding `NCCCC[C@H](NC(=O)[C@@H]1CCCN1C(=O)[C@@H]1CSSC[C@H](NC(=O)CNC(=O)CNC(=O)CN)C(=O)N[C@@H](Cc2ccc(O)cc2)C(=O)N[C@@H](Cc2ccccc2)C(=O)N[C@@H](CCC(N)=O)C(=O)N[C@@H](CC(N)=O)C(=O)N1)C(=O)NCC(N)=O` [ONC0001913, terlipressin] (H-GGGCYFQNCPKG-NH2; disulfide 4-9), the “% viability” value amounted to 80.65%.
For `Cc1ccc2c(c1)C1(CCN(CCc3nc(-c4ccccc4)oc3C)CC1)OC(=O)N2` [ONC0001392, rs504393] the value was 80.78%; for `Oc1ccc(Cl)cc1Cc1cc(Cl)ccc1O` [ONC0003308, dichlorophen], 84.57%; for `CCC(CC)C(c1ccc(Nc2nc3ccccc3s2)cc1)n1cncn1` (centres unmarked) [ONC0001358, talarozole], 86.45%.
As to `Oc1cc(O)c2cc(O)c(-c3cc(O)c(O)c(O)c3)[o+]c2c1` [ONC0003804, delphinidin], the “% viability” value is given as 67%.
For `O=C(O)c1cc(=O)c2ccccc2o1` [ONC0003089, chromocarb] the value was 84.15%.
